# Assay results published in the supplement of paper PMC8728848.
# The list shows a part of the results.
# B1: SJCP1084 (Schistosoma japonicum) (protein)
# chain: MRIINLVIISTALLLINLLQTKSQANGEDTKNGTPDDPGLTKSTELKVEVQALLKDKKTNMRVKWNENLLDNTKPEYHNLRDEACELLLQIVRSVVPLSQDDGECKDVTFTKYVVGTKDGAVNVKLTITFKDSVAINQKPMDLKLKLENDFKNLQSESTLKATKPTFTVKVEKRLIPISKPQTTPPTTAKNDASKENVGDIGGEDSTVPTAAPATAASANEEKDEGDKDNKDSQHPNVLTSNVNDRNLIIALVALMILAIGVALTAAVKQR
# Assays:
# Assay in all cases: glycan array binding signal (z-score within array); higher = stronger binding
# Conditions in all cases: glycan notation: IUPAC condensed, linker removed
# [1] = biological target: Gal(b1-3)[Fuc(a1-4)]GlcNAc(b1-6)GalNAc
# In short: (§1)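 From the Consortium for Functional Glycomics database, 3228 arrays were curated, keeping only those whose protein sequence was available. Binding is given as a within-array Z-score averaged across arrays sharing a protein sequence and across linkers. Negative Z-scores can be read as non-binding.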
# [2] = biological target: Gal(b1-3)[GlcNAc(b1-6)]GalNAc
# In short: as §1
# [3] = biological target: Gal(b1-3)[Neu5Ac(a2-6)]GalNAc
# In short: as §1
# [4] = biological target: Gal(b1-3)[Neu5Ac(a2-6)]GlcNAc(b1-4)Gal(b1-4)Glc
# In short: as §1
# [5] = biological target: Gal(b1-3)[Neu5Ac(b2-6)]GalNAc
# In short: as §1
# Gal(b1-4)Gal = biological target: Gal(b1-4)Gal
# In short: as §1
# [6] = biological target: Gal(b1-4)GalNAc(a1-3)[Fuc(a1-2)]Gal(b1-4)GlcNAc
# In short: as §1
# [7] = biological target: Gal(b1-4)GalNAc(b1-3)[Fuc(a1-2)]Gal(b1-4)GlcNAc
# In short: as §1
# Gal(b1-4)Glc = biological target: Gal(b1-4)Glc
# In short: as §1
# Gal(b1-4)Glc6S = biological target: Gal(b1-4)Glc6S
# In short: as §1
# Gal(b1-4)GlcNAc = biological target: Gal(b1-4)GlcNAc
# In short: as §1
# [8] = biological target: Gal(b1-4)GlcNAc(a1-6)Gal(b1-4)GlcNAc
# In short: as §1
# Gal(b1-4)GlcNAc(b1-2)Man = biological target: Gal(b1-4)GlcNAc(b1-2)Man
# In short: as §1
# [9] = biological target: Gal(b1-4)GlcNAc(b1-2)Man(a1-3)Man(b1-4)GlcNAc(b1-4)GlcNAc
# In short: as §1
# [10] = biological target: Gal(b1-4)GlcNAc(b1-2)Man(a1-3)[Gal(b1-4)GlcNAc(b1-2)Man(a1-6)]Man(b1-4)GlcNAc(b1-4)GlcNAc
# In short: as §1
# [11] = biological target: Gal(b1-4)GlcNAc(b1-2)Man(a1-3)[Gal(b1-4)GlcNAc(b1-2)Man(a1-6)]Man(b1-4)GlcNAc(b1-4)[Fuc(a1-6)]GlcNAc
# In short: as §1
# [12] = biological target: Gal(b1-4)GlcNAc(b1-2)Man(a1-3)[Gal(b1-4)GlcNAc(b1-2)Man(a1-6)][Gal(b1-4)GlcNAc(b1-4)]Man(b1-4)GlcNAc(b1-4)[Fuc(a1-6)]GlcNAc
# In short: as §1
# [13] = biological target: Gal(b1-4)GlcNAc(b1-2)Man(a1-3)[Gal(b1-4)GlcNAc(b1-2)Man(a1-6)][GlcNAc(b1-4)]Man(b1-4)GlcNAc(b1-4)[Fuc(a1-6)]GlcNAc
# In short: as §1
# [14] = biological target: Gal(b1-4)GlcNAc(b1-2)Man(a1-3)[GlcNAc(b1-2)Man(a1-6)]Man(b1-4)GlcNAc(b1-4)GlcNAc
# In short: as §1
# [15] = biological target: Gal(b1-4)GlcNAc(b1-2)Man(a1-3)[GlcNAc(b1-4)][Gal(b1-4)GlcNAc(b1-2)Man(a1-6)]Man(b1-4)GlcNAc(b1-4)GlcNAc
# In short: as §1
# [16] = biological target: Gal(b1-4)GlcNAc(b1-2)Man(a1-3)[Man(a1-6)]Man(b1-4)GlcNAc(b1-4)GlcNAc
# In short: as §1
# [17] = biological target: Gal(b1-4)GlcNAc(b1-2)Man(a1-6)Man(b1-4)GlcNAc(b1-4)GlcNAc
# In short: as §1
# [18] = biological target: Gal(b1-4)GlcNAc(b1-2)Man(a1-6)[GlcNAc(b1-2)Man(a1-3)]Man(b1-4)GlcNAc(b1-4)GlcNAc
# In short: as §1
# [19] = biological target: Gal(b1-4)GlcNAc(b1-2)Man(a1-6)[Man(a1-3)]Man(b1-4)GlcNAc(b1-4)GlcNAc
# In short: as §1
# [20] = biological target: Gal(b1-4)GlcNAc(b1-2)[Gal(b1-4)GlcNAc(b1-4)]Man(a1-3)[Gal(b1-4)GlcNAc(b1-2)Man(a1-6)]Man(b1-4)GlcNAc(b1-4)GlcNAc
# In short: as §1
# [21] = biological target: Gal(b1-4)GlcNAc(b1-2)[Gal(b1-4)GlcNAc(b1-4)]Man(a1-3)[Gal(b1-4)GlcNAc(b1-2)[Gal(b1-4)GlcNAc(b1-6)]Man(a1-6)]Man(b1-4)GlcNAc(b1-4)GlcNAc
# In short: as §1
# [22] = biological target: Gal(b1-4)GlcNAc(b1-2)[Gal(b1-4)GlcNAc(b1-4)]Man(a1-3)[GlcNAc(b1-4)][Gal(b1-4)GlcNAc(b1-2)Man(a1-6)]Man(b1-4)GlcNAc(b1-4)GlcNAc
# In short: as §1
# [23] = biological target: Gal(b1-4)GlcNAc(b1-2)[Gal(b1-4)GlcNAc(b1-4)]Man(a1-3)[GlcNAc(b1-4)][Gal(b1-4)GlcNAc(b1-2)[Gal(b1-4)GlcNAc(b1-6)]Man(a1-6)]Man(b1-4)GlcNAc(b1-4)GlcNAc
# In short: as §1
# [24] = biological target: Gal(b1-4)GlcNAc(b1-2)[Gal(b1-4)GlcNAc(b1-6)]Man(a1-6)[Gal(b1-4)GlcNAc(b1-2)Man(a1-3)]Man(b1-4)GlcNAc(b1-4)GlcNAc
# In short: as §1
# [25] = biological target: Gal(b1-4)GlcNAc(b1-2)[Gal(b1-4)GlcNAc(b1-6)]Man(a1-6)[Gal(b1-4)GlcNAc(b1-2)Man(a1-3)]Man(b1-4)GlcNAc(b1-4)[Fuc(a1-6)]GlcNAc
# In short: as §1
# [26] = biological target: Gal(b1-4)GlcNAc(b1-2)[Gal(b1-4)GlcNAc(b1-6)]Man(a1-6)[GlcNAc(b1-4)][Gal(b1-4)GlcNAc(b1-2)Man(a1-3)]Man(b1-4)GlcNAc(b1-4)GlcNAc
# In short: as §1
# [27] = biological target: Gal(b1-4)GlcNAc(b1-2)[Gal(b1-4)GlcNAc(b1-6)]Man(a1-6)[GlcNAc(b1-4)][Gal(b1-4)GlcNAc(b1-2)[Gal(b1-4)GlcNAc(b1-4)]Man(a1-3)]Man(b1-4)GlcNAc(b1-4)[Fuc(a1-6)]GlcNAc
# In short: as §1
# [28] = biological target: Gal(b1-4)GlcNAc(b1-3)Gal(b1-3)GalNAc
# In short: as §1
# [29] = biological target: Gal(b1-4)GlcNAc(b1-3)Gal(b1-3)GlcNAc
# In short: as §1
# [30] = biological target: Gal(b1-4)GlcNAc(b1-3)Gal(b1-4)Glc
# In short: as §1
# [31] = biological target: Gal(b1-4)GlcNAc(b1-3)Gal(b1-4)GlcNAc
# In short: as §1
# [32] = biological target: Gal(b1-4)GlcNAc(b1-3)Gal(b1-4)GlcNAc(b1-2)Man(a1-3)[Gal(b1-4)GlcNAc(b1-3)Gal(b1-4)GlcNAc(b1-2)Man(a1-6)]Man(b1-4)GlcNAc(b1-4)GlcNAc
# In short: as §1
# [33] = biological target: Gal(b1-4)GlcNAc(b1-3)Gal(b1-4)GlcNAc(b1-2)Man(a1-3)[Gal(b1-4)GlcNAc(b1-3)Gal(b1-4)GlcNAc(b1-2)Man(a1-6)]Man(b1-4)GlcNAc(b1-4)[Fuc(a1-6)]GlcNAc
# In short: as §1
binder,measurement,setting,value
B1,glycan array binding signal (z-score),[1],-0.381
same,glycan array binding signal (z-score),[2],-0.42
same,glycan array binding signal (z-score),[3],-0.582
same,glycan array binding signal (z-score),[4],0.43
same,glycan array binding signal (z-score),[5],-1.04
same,glycan array binding signal (z-score),Gal(b1-4)Gal,-0.075
same,glycan array binding signal (z-score),[6],-0.495
same,glycan array binding signal (z-score),[7],-0.48
same,glycan array binding signal (z-score),Gal(b1-4)Glc,-0.653
same,glycan array binding signal (z-score),Gal(b1-4)Glc6S,0.127
same,glycan array binding signal (z-score),Gal(b1-4)GlcNAc,-0.069
same,glycan array binding signal (z-score),[8],-0.963
same,glycan array binding signal (z-score),Gal(b1-4)GlcNAc(b1-2)Man,-0.655
same,glycan array binding signal (z-score),[9],-0.007
same,glycan array binding signal (z-score),[10],0.231
same,glycan array binding signal (z-score),[11],0.514
same,glycan array binding signal (z-score),[12],0.041
same,glycan array binding signal (z-score),[13],-1.17
same,glycan array binding signal (z-score),[14],-0.705
same,glycan array binding signal (z-score),[15],-0.984
same,glycan array binding signal (z-score),[16],-0.163
same,glycan array binding signal (z-score),[17],0.055
same,glycan array binding signal (z-score),[18],0.284
same,glycan array binding signal (z-score),[19],0.64
same,glycan array binding signal (z-score),[20],0.482
same,glycan array binding signal (z-score),[21],-0.436
same,glycan array binding signal (z-score),[22],-1.12
same,glycan array binding signal (z-score),[23],0.608
same,glycan array binding signal (z-score),[24],1.06
same,glycan array binding signal (z-score),[25],2.77
same,glycan array binding signal (z-score),[26],-0.924
same,glycan array binding signal (z-score),[27],1.23
same,glycan array binding signal (z-score),[28],0.508
same,glycan array binding signal (z-score),[29],0.475
same,glycan array binding signal (z-score),[30],0.943
same,glycan array binding signal (z-score),[31],-1.54
same,glycan array binding signal (z-score),[32],1.6
same,glycan array binding signal (z-score),[33],4.14

# Nothing new here: entries from further up.
binder,measurement,setting,value
B1,glycan array binding signal (z-score),[15],-0.984
same,glycan array binding signal (z-score),[16],-0.163
same,glycan array binding signal (z-score),[17],0.055
